Data on four substances can be found in PMC7979776.

Amino acid sequences for entries named in this document (tags omitted). A change or cut given only in a name is not applied to a line headed by its entry. Chains listed by the source or under a name are the forms on record and can include a tag or linker. Residues count along the entry.
FLAG-tagged human skeletal muscle WT LDB3-LΔex10 (O75112, form named): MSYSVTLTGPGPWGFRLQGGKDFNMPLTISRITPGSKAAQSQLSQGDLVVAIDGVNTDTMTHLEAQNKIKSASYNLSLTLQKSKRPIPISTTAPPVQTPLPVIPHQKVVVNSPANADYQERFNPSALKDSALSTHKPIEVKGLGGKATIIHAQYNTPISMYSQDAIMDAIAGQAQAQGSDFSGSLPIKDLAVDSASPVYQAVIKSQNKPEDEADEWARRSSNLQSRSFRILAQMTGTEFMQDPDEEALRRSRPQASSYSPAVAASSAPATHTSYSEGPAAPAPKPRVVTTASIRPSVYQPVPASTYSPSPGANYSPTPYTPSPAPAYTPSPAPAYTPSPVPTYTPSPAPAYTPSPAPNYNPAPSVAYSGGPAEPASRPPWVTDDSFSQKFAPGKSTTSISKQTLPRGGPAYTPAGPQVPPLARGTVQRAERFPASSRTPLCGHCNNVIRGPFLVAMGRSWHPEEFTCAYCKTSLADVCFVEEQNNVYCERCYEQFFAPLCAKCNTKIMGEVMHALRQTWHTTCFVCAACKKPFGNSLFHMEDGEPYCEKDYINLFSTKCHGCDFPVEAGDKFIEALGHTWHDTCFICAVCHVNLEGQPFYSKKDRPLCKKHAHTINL
GST-tagged mutant LDB3-LΔex10 (Ala165Val) (O75112, form named): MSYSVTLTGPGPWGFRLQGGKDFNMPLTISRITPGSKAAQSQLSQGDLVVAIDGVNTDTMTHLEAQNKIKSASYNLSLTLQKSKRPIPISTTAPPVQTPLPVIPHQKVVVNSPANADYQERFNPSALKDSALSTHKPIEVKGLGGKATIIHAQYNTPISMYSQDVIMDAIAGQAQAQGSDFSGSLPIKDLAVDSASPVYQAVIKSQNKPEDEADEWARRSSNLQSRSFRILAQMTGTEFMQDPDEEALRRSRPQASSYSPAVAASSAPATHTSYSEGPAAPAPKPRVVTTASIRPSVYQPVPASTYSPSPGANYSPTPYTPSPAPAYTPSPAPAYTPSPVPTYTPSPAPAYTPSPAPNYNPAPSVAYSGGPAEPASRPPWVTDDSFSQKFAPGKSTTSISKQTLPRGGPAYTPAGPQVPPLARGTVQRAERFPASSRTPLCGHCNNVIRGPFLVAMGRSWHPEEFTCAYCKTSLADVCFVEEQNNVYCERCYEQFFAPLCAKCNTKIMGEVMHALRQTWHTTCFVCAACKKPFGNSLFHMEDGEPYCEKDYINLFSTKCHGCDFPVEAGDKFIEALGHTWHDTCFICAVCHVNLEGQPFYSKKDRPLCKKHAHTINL
HSPA8 internal region (aa 237-468), prey clones of the yeast two-hybrid screen (P11142, residues 237-468): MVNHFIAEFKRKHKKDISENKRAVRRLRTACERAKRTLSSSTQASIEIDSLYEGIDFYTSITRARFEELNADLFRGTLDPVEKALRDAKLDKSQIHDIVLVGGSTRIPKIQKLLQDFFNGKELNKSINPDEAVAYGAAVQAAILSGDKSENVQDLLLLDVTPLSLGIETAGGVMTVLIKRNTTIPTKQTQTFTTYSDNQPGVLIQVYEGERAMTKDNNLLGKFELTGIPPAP
UniProt Q8VHX6: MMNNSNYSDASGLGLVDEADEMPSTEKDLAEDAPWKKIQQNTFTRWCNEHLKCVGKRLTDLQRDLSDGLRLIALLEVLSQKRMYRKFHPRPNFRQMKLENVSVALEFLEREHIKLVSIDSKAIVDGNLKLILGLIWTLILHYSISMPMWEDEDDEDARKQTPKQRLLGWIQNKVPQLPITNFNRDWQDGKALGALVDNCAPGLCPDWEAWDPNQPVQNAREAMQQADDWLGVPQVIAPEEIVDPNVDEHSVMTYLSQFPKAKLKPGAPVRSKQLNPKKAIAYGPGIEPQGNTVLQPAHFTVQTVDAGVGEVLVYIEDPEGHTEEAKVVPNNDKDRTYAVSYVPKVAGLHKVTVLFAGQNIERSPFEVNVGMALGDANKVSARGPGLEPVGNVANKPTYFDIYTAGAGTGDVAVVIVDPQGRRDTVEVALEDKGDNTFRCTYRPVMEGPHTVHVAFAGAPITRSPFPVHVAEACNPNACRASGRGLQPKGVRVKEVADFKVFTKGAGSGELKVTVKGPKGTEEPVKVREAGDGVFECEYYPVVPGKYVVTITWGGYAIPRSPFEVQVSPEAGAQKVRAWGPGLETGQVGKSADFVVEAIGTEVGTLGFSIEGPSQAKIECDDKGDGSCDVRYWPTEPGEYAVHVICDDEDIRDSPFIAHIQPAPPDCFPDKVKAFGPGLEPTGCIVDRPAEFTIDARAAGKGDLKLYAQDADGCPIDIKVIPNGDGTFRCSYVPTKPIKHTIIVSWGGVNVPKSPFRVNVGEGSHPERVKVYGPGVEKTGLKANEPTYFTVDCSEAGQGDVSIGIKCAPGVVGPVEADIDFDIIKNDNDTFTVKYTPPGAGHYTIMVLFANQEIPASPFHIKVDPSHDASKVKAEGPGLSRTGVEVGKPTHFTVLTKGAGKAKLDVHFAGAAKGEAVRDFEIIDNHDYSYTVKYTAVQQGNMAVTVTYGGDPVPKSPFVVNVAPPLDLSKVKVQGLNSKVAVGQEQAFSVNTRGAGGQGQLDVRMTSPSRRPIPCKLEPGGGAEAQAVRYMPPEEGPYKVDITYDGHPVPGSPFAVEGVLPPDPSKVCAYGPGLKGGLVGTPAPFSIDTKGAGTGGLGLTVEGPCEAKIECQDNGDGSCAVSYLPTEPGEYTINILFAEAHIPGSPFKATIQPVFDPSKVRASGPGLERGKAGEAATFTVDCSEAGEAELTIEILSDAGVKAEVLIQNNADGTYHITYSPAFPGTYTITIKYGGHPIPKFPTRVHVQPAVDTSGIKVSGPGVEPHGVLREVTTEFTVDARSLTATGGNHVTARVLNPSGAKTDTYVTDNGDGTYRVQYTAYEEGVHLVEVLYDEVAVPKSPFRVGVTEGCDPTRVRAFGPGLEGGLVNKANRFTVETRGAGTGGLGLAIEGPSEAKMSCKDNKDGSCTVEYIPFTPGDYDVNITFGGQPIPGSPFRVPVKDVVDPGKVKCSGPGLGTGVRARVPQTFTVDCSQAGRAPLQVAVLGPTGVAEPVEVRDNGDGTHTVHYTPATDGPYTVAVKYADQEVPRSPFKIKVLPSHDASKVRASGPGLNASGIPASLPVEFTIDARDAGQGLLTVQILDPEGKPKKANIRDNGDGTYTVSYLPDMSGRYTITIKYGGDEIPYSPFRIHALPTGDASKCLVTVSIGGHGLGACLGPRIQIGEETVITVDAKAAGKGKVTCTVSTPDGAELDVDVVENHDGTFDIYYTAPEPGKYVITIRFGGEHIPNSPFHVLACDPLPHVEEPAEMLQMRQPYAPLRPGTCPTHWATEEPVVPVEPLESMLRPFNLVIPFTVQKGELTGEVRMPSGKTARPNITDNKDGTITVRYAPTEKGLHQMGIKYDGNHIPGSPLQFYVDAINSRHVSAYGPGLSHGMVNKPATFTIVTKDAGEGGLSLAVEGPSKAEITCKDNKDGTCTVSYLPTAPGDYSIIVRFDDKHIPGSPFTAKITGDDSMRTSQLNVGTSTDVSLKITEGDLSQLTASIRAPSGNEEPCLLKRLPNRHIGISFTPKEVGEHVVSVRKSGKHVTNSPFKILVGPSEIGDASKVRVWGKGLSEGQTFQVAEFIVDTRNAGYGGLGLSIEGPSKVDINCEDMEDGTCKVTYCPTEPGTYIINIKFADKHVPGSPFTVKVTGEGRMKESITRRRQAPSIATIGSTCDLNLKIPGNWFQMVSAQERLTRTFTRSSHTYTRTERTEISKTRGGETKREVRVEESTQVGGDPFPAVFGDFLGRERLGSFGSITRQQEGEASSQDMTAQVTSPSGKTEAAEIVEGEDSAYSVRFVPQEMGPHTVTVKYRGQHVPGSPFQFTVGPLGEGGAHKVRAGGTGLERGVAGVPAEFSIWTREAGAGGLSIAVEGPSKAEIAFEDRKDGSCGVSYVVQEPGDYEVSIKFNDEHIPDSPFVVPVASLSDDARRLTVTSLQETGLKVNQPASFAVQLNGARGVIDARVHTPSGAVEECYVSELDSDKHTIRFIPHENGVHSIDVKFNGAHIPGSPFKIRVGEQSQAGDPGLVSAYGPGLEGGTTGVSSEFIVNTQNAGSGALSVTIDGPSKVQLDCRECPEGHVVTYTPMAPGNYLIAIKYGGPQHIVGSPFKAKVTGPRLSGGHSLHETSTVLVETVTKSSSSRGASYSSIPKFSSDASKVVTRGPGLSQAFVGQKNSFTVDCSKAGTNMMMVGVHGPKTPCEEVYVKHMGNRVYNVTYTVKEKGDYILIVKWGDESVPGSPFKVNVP
UniProt Q9JLV1: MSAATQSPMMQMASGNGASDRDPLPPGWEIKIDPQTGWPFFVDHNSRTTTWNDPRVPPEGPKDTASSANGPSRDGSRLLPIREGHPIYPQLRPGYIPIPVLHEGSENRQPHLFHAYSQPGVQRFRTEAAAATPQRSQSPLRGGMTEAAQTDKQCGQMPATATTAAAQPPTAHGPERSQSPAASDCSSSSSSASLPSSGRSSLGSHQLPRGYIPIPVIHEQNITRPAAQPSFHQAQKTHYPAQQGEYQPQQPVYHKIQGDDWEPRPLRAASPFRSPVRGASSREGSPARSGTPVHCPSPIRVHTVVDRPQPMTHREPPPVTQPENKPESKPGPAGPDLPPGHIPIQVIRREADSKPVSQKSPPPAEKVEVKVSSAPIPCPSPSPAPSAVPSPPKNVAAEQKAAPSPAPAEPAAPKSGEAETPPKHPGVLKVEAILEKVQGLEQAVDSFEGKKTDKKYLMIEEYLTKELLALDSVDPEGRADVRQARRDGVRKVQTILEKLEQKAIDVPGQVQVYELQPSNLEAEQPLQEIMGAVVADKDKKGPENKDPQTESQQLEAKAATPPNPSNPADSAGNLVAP

No constants are given. Whether binding was seen depends on the method and setting. For some assays here: In cells and extracts the contact can be indirect. Some results given as binding are weak or reduced against the parent protein; the word gives no strength.

Assay [1] concerns the target human LDB3 peptide encoded by exons 8 and 11 (amino acid 221-320), bait of the yeast two-hybrid screen (human) (UniProt O75112). Nature of the assay: two-hybrid; screen by Hybrigenics Services; LDB3 aa 221-320 as bait against a human skeletal muscle cDNA library.
Assay [2] concerns the target FLAG-tagged human skeletal muscle WT LDB3-LΔex10 (human) (UniProt O75112). Put plainly: co-IP; FLAG antibody; lysates of transfected COS-7 cells; detection with anti-FLAG and anti-HA antibodies.
The target of assay [3] is FLAG-tagged human skeletal muscle Ala165Val LDB3-LΔex10 (human) (UniProt O75112). The assay is described as above.
Assay [4] concerns the target GST-tagged mutant LDB3-LΔex10 (Ala165Val) (UniProt O75112). Nature of the assay: pull-down; recombinant GST-tagged LDB3 proteins as bait; vastus muscle lysates of three wildtype mice; immunoblot; only the target purified.

On to “HSPA8 internal region (aa 237-468), prey clones of the yeast two-hybrid screen (from UniProt P11142-1 237-468) (domain or fragment)”, for which the binding result in assay [1] was “binds”.

In the case of “HA-tagged full-length human HSPA8 (from UniProt P11142-1 1-646)”, the binding result in assay [2] and in assay [3] was “binds” throughout. In the case of “filamin C, endogenous in mouse skeletal muscle (from UniProt Q8VHX6 1-2726)”, in assay [4], the binding result is given as “binds”. On to “BAG3, endogenous in mouse vastus muscle (from UniProt Q9JLV1 1-577)”, for which, in assay [4], the binding entry was “binds”.
